Values of other authors as cited in patent publication US7112658B2, “Orphanin FQ receptor polypeptides” (Regents of the University of Michigan, priority 2001, dated 2006).
At least one compound was matched to its structure with a doubt left.

Target: OFQ receptors (OFQRs)
Conditions: CHO cells transfected with the receptor; effect not modified by opioid ligands; read-out: EC50 for inhibition of forskolin-induced cAMP accumulation

SMILES: CC(C)C[C@H](NC(=O)[C@H](CCCCN)NC(=O)[C@H](CCCN=C(N)N)NC(=O)[C@H](C)NC(=O)[C@H](CO)NC(=O)[C@H](CCCCN)NC(=O)[C@H](CCCN=C(N)N)NC(=O)[C@H](C)NC(=O)CNC(=O)[C@@H](NC(=O)[C@H](Cc1ccccc1)NC(=O)CNC(=O)CNC(=O)[C@@H](N)Cc1ccccc1)[C@@H](C)O)C(=O)N[C@@H](C)C(=O)N[C@@H](CC(N)=O)C(=O)N[C@@H](CCC(N)=O)C(=O)O [OFQ, Phe-Gly-Gly-Phe-Thr-Gly-Ala-Arg-Lys-Ser-Ala-Arg-Lys-Leu-Ala-Asn-Gln]
- EC50: ~1 nM
